Z-score data for 68 sequences are collected here from PubChem BioAssay AID1508600 (Functional Genomics Laboratory (NCATS/FGL), 2020).

About 3,700 (7%) of roughly 53,000 sequences were called active.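 The calls were made as follows: active = gene knockdowns whose robust z-score for IL-1 alpha signal is at least 2 or at most -2, so actives lie on both sides; inactive = the rest.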 This is one part of the list.

The nature of the test: Components of the Cytosolic LPS Sensing Pathway: Gene Identification via Genome-wide siRNA Screen.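 Also: robust z of the log signal after scaling to non-targeting control siRNA wells of the plate.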 Conditions: RAW264.7 macrophages, IL-1a HTRF, actives lie on both sides, screened at 100 nM (by protocol), cells primed 5 h with Pam3CSK4 first. The method, boiled down:
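Cells (RAW264.7, 1×10^4 per well) were transfected with siRNA at 100 nM and cultured 48h at 37 degrees C. Pam3CSK4 was added for 5 hours; LipidA transfection followed for 24 hour. IL-1a was then measured by HTRF.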
With GGUCCUCAACUACAUUUUUTT against Prl5a1, the z-score is inactive: 0.0222.

In the case of GGAUGAAGAGGAUUCAUUGTT against Pde4a, the z-score was inactive: 1.1.

With GGGAAUCAUGAUAUGUUUCTT against Tmem186, the z-score was inactive: -0.217.

Regarding GAAAUGGAACGGUGCCACATT against Defb9, the z-score is inactive: 0.669.

Consider CCCAAUUAGGCUAUGCUAATT against Amfr, for which the z-score was active: 2.27.

Regarding GCAAAUUGUCAACAUACUUTT against Slc3a2, the z-score is inactive: 1.48.

With GGCGACAAGCAACUUAUAATT against Mgat4c, the z-score is active: 3.25.

With GGCAAAAGGCACUUUUGGATT against Cep295nl, the z-score is inactive: -1.13.

Consider “GCCCUUAUUUACUAACAUCTT against 1500015L24Rik”, for which the z-score was inactive: -1.26.

Turning to CCAAGGCCAUCUCAUUUUCTT against Olfr749, the z-score is inactive: 0.511.

In the case of GGCAUAUAGAAACUGGUAATT against Npy6r, the z-score is inactive: -0.316.

GGAUUUGCCUUAAAAAAUCTT against Dock4: the z-score is inactive: -0.0352.

Turning to GGUUCAGCUAAAGGAUUUATT against Sbno1, the z-score is inactive: 0.221.

For CGUCAAUAAUCUAUAUAGCTT against Blm, the z-score is inactive: 0.43.

With GGUGAUAAAAGAUUAGAAGTT against Nckipsd, the z-score was inactive: -0.128.

Take GGUUUAUGAGGAAAAGAAGTT against Svs6: the z-score is inactive: -1.56.

As for GGCACCUUAAUGCUGACUUTT against Sdc4, the z-score was inactive: -0.694.

Regarding GCUUAUAAAAGACUUACUGTT against Sec24b, the z-score was inactive: 0.414.

On to GGCACAGAACAUUUAAUUGTT against Mefv, for which the z-score was inactive: 0.167.

With GGAAAACAGAAAUGGUUUATT against Slc39a10, the z-score is inactive: -0.0433.

For the sequence GGCCGACCUUUCUAUCAAUTT against Rasip1, the z-score was inactive: -0.0174.

With GCUCUUUCCCGACAUUCCCTT against Nans, the z-score is inactive: -1.26.

Turning to “GGGAAAUUUUCUGACAAGUTT against A730020M07Rik”, the z-score was inactive: -1.29.

GGAGAUUGUGCCAUCCAUGTT against Ccnd1: the z-score was inactive: -0.754.

Regarding GCUAGACGGGUGUUUAAGATT against Tiam2, the z-score was inactive: -1.44.

Consider GGGCAAGUGGAAGAAGAGATT against Klhdc8a, for which the z-score is inactive: -0.759.

For the sequence GGCUAAGGGUGGGAAAGAATT against Csl, the z-score is inactive: -1.65.

Regarding UCCCUAACGGCCCUUUUUATT against H4c14, the z-score is inactive: -0.729.

On to GGACUACAGAACAAAAUGUTT against Zfp385b, for which the z-score was inactive: 0.229.

For GGAAACGAUAGCCAAUAUUTT against Scp2d1, the z-score is inactive: -1.08.

Regarding GCUUUGAGCAGCUAGGUUATT against Tpcn2, the z-score is active: 3.78.

Take GGUGAUGCAGAAAGGUGGATT against H2-M10.5: the z-score is inactive: 1.01.

For GGAAGGUCUAGUUGAUUGUTT against Klrb1a, the z-score was inactive: -0.794.

With CCUAUAAUGGAGAUGAUACTT against Spty2d1, the z-score is inactive: -0.46.

On to GGACAACAUUAUAGGAAAGTT against Neu3, for which the z-score was active: 2.36.

For the sequence CCAAGAUCUCAGUUGUCUCTT against Mtif2, the z-score was inactive: 0.157.

As to GGAGCUCAGCAUUAUGUAGTT against Adpgk, the z-score is inactive: -0.138.

Take GGUGUUUGCCGAGUGACUGTT against Wdr25: the z-score is inactive: -0.133.

Turning to GGAAGUUAGCCCUAAAGUUTT against Uchl1, the z-score was inactive: -0.0263.

Turning to CCAUCCAGCUUUCAUUAAATT against Nckap1l, the z-score was inactive: 0.508.

For the sequence GGACACCUACUUGGUAUUGTT against Epor, the z-score is inactive: -0.632.

With CCUUUCAGGUGCAUAUCCATT against Plppr1, the z-score is inactive: 0.547.

In the case of GGACUAUGCUGUCCAGAUCTT against Ntn1, the z-score is inactive: -0.432.

With AGGGCGAUGCCAUUUCUUATT against Cacfd1, the z-score is inactive: 0.503.

As for GGUUGACAAUUUUCUCAAGTT against Prl, the z-score is inactive: 1.44.

Turning to GGAGUGGCUAUGUUUUCGATT against Hrg, the z-score was inactive: 0.658.

Consider GGUCUUCGGUUUUUUAUACTT against Olfr908, for which the z-score is inactive: -0.337.

Take GGGACAAAACCUUGAUGGUTT against Vmn1r200: the z-score was inactive: -0.254.

Turning to GCAACAAGACUCGCAUCAUTT against Cbln4, the z-score is inactive: 0.866.

In the case of CCUUGAGCAUAUCUUCUGUTT against Olfr420, the z-score was inactive: 0.862.

Take GGAAAGGACUAAGUCAGGATT against Mdk: the z-score is inactive: -0.136.

In the case of GGAGGAGACAGGCUAUUACTT against Usp25, the z-score is inactive: 0.129.

As for GCCCAAACUCAUUGAGUUUTT against Cab39l, the z-score is inactive: 1.78.

As to GCGGCAGUAGCCAGAAAAATT against Rhox7a, the z-score was inactive: -1.37.

Regarding GGAGAGGAAUGGUGUGUUATT against Cfap36, the z-score is inactive: -1.44.

For GGAGACUACAAAGGAGAGCTT against Igfbp6, the z-score was inactive: -0.589.

Regarding GCUCGGUCUUCAUCCCAAATT against BC016548, the z-score is inactive: 0.535.

As for GGCUUCUGUGGCAGAUAAGTT against Pspn, the z-score is inactive: -0.166.

CGGGAAAUCAUAAAACAGGTT against Chd4: the z-score is inactive: 0.0611.

Turning to GGAGCUGAGGGAACCUUGUTT against Slc35c1, the z-score is active: -2.67.

For the sequence GGCUACAUAGGAUCCACAATT against Prm2, the z-score is inactive: 0.754.

As for GGGAGAAAUUUGAUAGUUUTT against Pcmtd2, the z-score is inactive: 0.955.

CGAUAUCACUCAGGAGUGUTT against Ilkap: the z-score is inactive: -0.594.

As to GGAAAUGAACAUGUGACUATT against Taf1d, the z-score was inactive: 0.341.

Turning to GCACUACACUGAUUUGCUATT against Actr1b, the z-score was inactive: -0.744.

For the sequence GGCAAUGGACCUUUGAUGCTT against Tmem79, the z-score was inactive: -0.0601.

Turning to GCAUCACUGGAUUGUGGAUTT against Tm9sf2, the z-score was inactive: 0.188.

On to UCAACAGGGCUGAUAUCCCTT against Acsl5, for which the z-score is inactive: -1.61.
